Literature values in EP1652531A1, “Use of GLP-1 or Analogues in Treatment of Stroke” (Eli Lilly & Company, priority 1998, dated 2006).
At least one compound was matched to its structure with a doubt left.

System: STC-1 cells
Conditions: exposure of STC-1 cells (Abella et al., 1994); cited from earlier work

C=C[C@@]1(C)CC(=O)[C@]2(O)[C@@]3(C)[C@@H](O)CCC(C)(C)[C@@H]3[C@H](O)[C@H](OC(C)=O)[C@@]2(C)O1 [forskolin]
release of GLP-1: significant increases
